In patent publication US11673892B2, “Bicyclic compounds for use as RIP1 kinase inhibitors” (Genentech, Inc., priority 2017, dated 2023) one finds Ki data, which are given here for two compounds.

Chains of the proteins cited; added tags and fusions are not shown. Residues count along the entry.
UniProt Q13546, 2-375 limits assumed: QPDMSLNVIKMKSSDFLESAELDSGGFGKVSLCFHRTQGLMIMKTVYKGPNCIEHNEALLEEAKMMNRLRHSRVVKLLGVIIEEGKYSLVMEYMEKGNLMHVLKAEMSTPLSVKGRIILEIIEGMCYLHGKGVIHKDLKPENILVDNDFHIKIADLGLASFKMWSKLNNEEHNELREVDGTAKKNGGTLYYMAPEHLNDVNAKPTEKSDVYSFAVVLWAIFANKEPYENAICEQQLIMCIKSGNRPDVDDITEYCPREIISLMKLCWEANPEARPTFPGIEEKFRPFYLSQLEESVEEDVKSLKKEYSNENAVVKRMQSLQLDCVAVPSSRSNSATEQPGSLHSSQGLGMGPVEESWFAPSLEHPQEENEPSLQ

The match of structure and compound is tentative.

This assay has as its target human RIP1 kinase domain (2-375) (Homo sapiens, UniProt Q13546). Description: RIP1 kinase inhibition biochemical assay (Transcreener ADP, fluorescence polarization). Particulars: Ki app (Morrison tight-binding fit); 50 nM enzyme, 50 uM ATP, 2 hours incubation. The method, then:
RIP1 Kinase Inhibition Assays (Biochemical Assay)
The compounds of the present invention were tested for their capacity to inhibit RIP1K activity as described below.
The ability of the receptor interacting protein kinase (RIPK1) to catalyze the hydrolysis of adenosine-5′-triphosphate (ATP) is monitored using the Transcreener ADP (adenosine-5′-diphosphate) assay (BellBrook Labs). Purified human RIP1 kinase domain (2-375) (50 nM) derived from a baculovirus-infected insect cell expression system is incubated with test compounds for 2 hours in 50 mM Hepes buffer (pH 7.5) containing 30 mM MgCl2, 1 mM dithiothreitol, 50 uM ATP, 0.002% Brij-35, and 0.5% dimethyl sulfoxide (DMSO). Reactions are quenched by the addition of 1× Bell Brooks Stop buffer B (20 mM Hepes (ph7.5), 40 mM ethylenediaminetetraacetic acid and 0.02% Brij-35) containing an additional 12 mM EDTA and 55 ug/mL ADP2 antibody and 4 nM ADP-AlexaFluor® 633 tracer. The tracer bound to the antibody is displaced by the ADP generated during the RIP1K reaction, which causes a decrease in fluorescence polarization that is measured by laser excitation at 633 nm with a FP microplate reader M1000. Fractional activity was plotted against test article concentration. […]

In turn, `CCOCCc1nc2n(n1)[C@H](c1ccccc1)C[C@@H]2F` had a Ki of 490 nM.
With `F[C@H]1C[C@@H](c2ccccc2)n2nc(-n3nnc4cnccc43)nc21` (single isomer, unassigned) the figure was 55 nM.
